PubChem BioAssay AID602196 – INSERM | 2012
In all, the deposit lists about 23,000 reagents; shown is a random part of them. Over the whole deposit, 455 (2%) are marked active. 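Active includes both protection and sensitisation; some change values fall well beyond the stated -50 to +50 range.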 Not all columns of the deposit are shown. Not stated in the record: the amount of reagent.

Screen: 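Genes whose knock-down alters cisplatin killing of lung cancer cells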
Cells: human A549 lung cancer cells
Reagent: siRNA pair against human genes
Time to read-out: 48 h transfection before cisplatin; time from cisplatin to read-out not stated
Treatment: cisplatin at a dose killing half of control-siRNA cells; exact dose and duration not given
Read-out: 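Shift in cisplatin death relative to control siRNA, from -50 (all cells die) to +50 (no cells die); siRNAs harmful on their own scored 0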
Scale: two-siRNA summed score (-2 to +2): higher = both siRNAs protect from cisplatin killing; -2 means both sensitise; mean protection from cisplatin (shift in death): higher = protection from cisplatin killing
Rule for the call: 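Each siRNA scores 0 if harmful alone by LDH or WST-1, otherwise +1 if it reduces and -1 if it increases cisplatin killing; a gene is active when both siRNAs agree (sum +2 or -2)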
Meaning of the calls: active = both siRNAs shift cisplatin killing the same way; inactive = no consistent shift, or siRNA harmful alone

Which result is listed for TBX5 [SID131504840]?
two-siRNA summed score (-2 to +2): 0; mean protection from cisplatin (shift in death) (%): -4.4; call: inactive

Which result is listed for RNF44 [SID131520697]?
two-siRNA summed score (-2 to +2): 1; mean protection from cisplatin (shift in death) (%): 10.8; call: inactive

What did the screen give for NBPF4 [SID131508245]?
two-siRNA summed score (-2 to +2): 0; mean protection from cisplatin (shift in death) (%): 0.8; call: inactive

How did the screen score RIPK4 [SID131523104]?
two-siRNA summed score (-2 to +2): 2; mean protection from cisplatin (shift in death) (%): 19.8; call: active

What is on record for FREM3 [SID131516337]?
two-siRNA summed score (-2 to +2): 0; mean protection from cisplatin (shift in death) (%): 10.7; call: inactive

What is on record for PROK2 [SID131513431]?
two-siRNA summed score (-2 to +2): 0; mean protection from cisplatin (shift in death) (%): 6.6; call: inactive

For TTI1 [SID131513668], what does the deposit list?
two-siRNA summed score (-2 to +2): 0; mean protection from cisplatin (shift in death) (%): 6.9; call: inactive

With LINC00999 [SID131517131], how do the results read?
two-siRNA summed score (-2 to +2): 0; mean protection from cisplatin (shift in death) (%): 12.5; call: inactive

What did the screen give for LINC01684 [SID131505943]?
two-siRNA summed score (-2 to +2): 0; mean protection from cisplatin (shift in death) (%): -2.3; call: inactive

Which result is listed for SNRPB2 [SID131511214]?
two-siRNA summed score (-2 to +2): 0; mean protection from cisplatin (shift in death) (%): 4.1; call: inactive

Which result is listed for BACC1 [SID131509686]?
two-siRNA summed score (-2 to +2): 0; mean protection from cisplatin (shift in death) (%): 2.4; call: inactive

Which result is listed for KCNK10 [SID131502709]?
two-siRNA summed score (-2 to +2): -1; mean protection from cisplatin (shift in death) (%): 2.9; call: inactive

What did the screen give for TAS1R1 [SID131501501]?
two-siRNA summed score (-2 to +2): -1; mean protection from cisplatin (shift in death) (%): -9.4; call: inactive

Which result is listed for GGA1 [SID131500463]?
two-siRNA summed score (-2 to +2): -1; mean protection from cisplatin (shift in death) (%): -27.5; call: inactive

For RPL21 [SID131518851], what was measured?
two-siRNA summed score (-2 to +2): 0; mean protection from cisplatin (shift in death) (%): 31.9; call: inactive

For LOC442084 [SID131522535], how do the results read?
two-siRNA summed score (-2 to +2): 1; mean protection from cisplatin (shift in death) (%): 19.7; call: inactive

For NPR1 [SID131514248], how do the results read?
two-siRNA summed score (-2 to +2): 0; mean protection from cisplatin (shift in death) (%): 7.6; call: inactive

Which result is listed for TBXT [SID131510451]?
two-siRNA summed score (-2 to +2): 0; mean protection from cisplatin (shift in death) (%): 3.3; call: inactive

Taken from above.
BACC1 [SID131509686], mean protection from cisplatin (shift in death) (%) = 2.4
Entry of NPR1 [SID131514248] in “two-siRNA summed score (-2 to +2)”: 0
Under “mean protection from cisplatin (shift in death) (%)”, NBPF4 [SID131508245] reads 0.8
KCNK10 [SID131502709], two-siRNA summed score (-2 to +2) = -1

Further entries:
With FNDC8 [SID131505716], how do the results read?
two-siRNA summed score (-2 to +2): 0; mean protection from cisplatin (shift in death) (%): -2.7; call: inactive

What is on record for ARRDC4 [SID131506149]?
two-siRNA summed score (-2 to +2): 0; mean protection from cisplatin (shift in death) (%): -2; call: inactive

For LOC440273 [SID131519641], how do the results read?
two-siRNA summed score (-2 to +2): 1; mean protection from cisplatin (shift in death) (%): 6.8; call: inactive

With NXPH4 [SID131515130], what was measured?
two-siRNA summed score (-2 to +2): 0; mean protection from cisplatin (shift in death) (%): 8.7; call: inactive

With HIF3A [SID131501591], what does the deposit list?
two-siRNA summed score (-2 to +2): -1; mean protection from cisplatin (shift in death) (%): -8.8; call: inactive

For PCED1B [SID131513331], how do the results read?
two-siRNA summed score (-2 to +2): 0; mean protection from cisplatin (shift in death) (%): 6.5; call: inactive

What is on record for LOC256483 (retired record) [SID131514689]?
two-siRNA summed score (-2 to +2): 0; mean protection from cisplatin (shift in death) (%): 8.1; call: inactive

For DRAM2 [SID131506544], how do the results read?
two-siRNA summed score (-2 to +2): 0; mean protection from cisplatin (shift in death) (%): -1.4; call: inactive

How did the screen score SCGN [SID131516916]?
two-siRNA summed score (-2 to +2): 0; mean protection from cisplatin (shift in death) (%): 11.9; call: inactive

With PCSK9 [SID131512573], what was measured?
two-siRNA summed score (-2 to +2): 0; mean protection from cisplatin (shift in death) (%): 5.6; call: inactive

How did the screen score KRT17 [SID131501810]?
two-siRNA summed score (-2 to +2): -1; mean protection from cisplatin (shift in death) (%): -7.2; call: inactive

Which result is listed for LOC388738 [SID131517765]?
two-siRNA summed score (-2 to +2): 0; mean protection from cisplatin (shift in death) (%): 14.7; call: inactive

For MIGA2 [SID131505544], what does the deposit list?
two-siRNA summed score (-2 to +2): 0; mean protection from cisplatin (shift in death) (%): -3; call: inactive
